Molecules are shown by their SMILES. The list shows a part of the results. Many values rest on one well or one pass, so single values are uncertain.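 The apoptosis fraction was the count of cleaved-PARP antibody-stained nuclei relative to all DNA-stained nuclei, imaged in 1,536-well plates. Screening doses were set so most cells survived, and baseline and induced cleaved-PARP levels vary greatly across cell lines.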

The source of these data is the supplement of paper PMC4604168 (melanoma cell lines).

The test system of the experiment is CBRC016 (line from a melanoma biopsy). Kind of experiment: cleaved PARP positive nuclei fraction relative to DMSO control; melanoma cells; higher = more apoptosis. The note with it: library dose: low library concentration; 72 h.
Regarding `CN(c1ncccc1CNc1nc(Nc2ccc3c(c2)CC(=O)N3)ncc1C(F)(F)F)S(C)(=O)=O` + COc1ccc(-c2ccc3c(N4CCOCC4)nc(N4C[C@@H](C)O[C@@H](C)C4)nc3n2)cc1CO [KU0063794] (first compound 0.08 µM, partner dose 0.02 µM), the “cleaved PARP positive nuclei fraction” value came out at 15%. The same measure for `CCN(CC)CCNC(=O)c1c(C)[nH]c(/C=C2\C(=O)Nc3ccc(F)cc32)c1C` [sunitinib] + CCN(CC)CCCCNc1ncc2cc(-c3cc(OC)cc(OC)c3)c(NC(=O)NC(C)(C)C)nc2n1 [PD173074] (first compound 0.4 µM, partner dose 0.1 µM): 50.6%. With `Cn1cnc2c(F)c(Nc3ccc(Br)cc3Cl)c(C(=O)NOCCO)cc21` [selumetinib] + O=C(Nc1ccccc1)c1cc([N+](=O)[O-])ccc1Cl [GW9662] (first compound 0.015 µM, partner dose 2 µM), the “cleaved PARP positive nuclei fraction” value is 51.1%. For `C[C@@H](N)c1ccc(C(=O)Nc2ccnc3[nH]ccc23)cc1` + COc1ccc2c(c1)CCC1C2CCC2(C)C(NCCCCCCN3C(=O)C=CC3=O)CCC12 [U73122] (first compound 0.4 µM, partner dose 0.4 µM) the value was 114%. The same measure for `CC(=O)O[C@@]12CO[C@@H]1C[C@H](O)[C@@]1(C)C(=O)[C@H](O)C3=C(C)[C@@H](OC(=O)[C@H](O)[C@@H](NC(=O)OC(C)(C)C)c4ccccc4)C[C@@](O)([C@@H](OC(=O)c4ccccc4)[C@H]21)C3(C)C` [Docetaxel] + COc1ccc(-c2ccc3c(N4CCOCC4)nc(N4C[C@@H](C)O[C@@H](C)C4)nc3n2)cc1CO [KU0063794] (first compound 0.0001 µM, partner dose 0.02 µM): 465%. The same measure for `CS(=O)(=O)c1ccc(C(=O)Nc2ccc(Cl)c(-c3ccccn3)c2)c(Cl)c1` [vismodegib] + COc1cc(N2CCC(N3CCN(C)CC3)CC2)ccc1Nc1ncc(Cl)c(Nc2ccccc2S(=O)(=O)C(C)C)n1 [NVP-TAE684] (first compound 1 µM, partner dose 0.08 µM): 85.5%. `NC(=O)c1ccc(N(C(N)=O)c2c(F)cccc2F)nc1-c1ccc(F)cc1F` + O=C(O)C(=O)Nc1sc2c(c1C(=O)O)CCNC2 [TCS401] (first compound 0.4 µM, partner dose 1.66667 µM): the “cleaved PARP positive nuclei fraction” value was found to be 25.9%. For `CCN(CC)CCNC(=O)c1c(C)[nH]c(/C=C2\C(=O)Nc3ccc(F)cc32)c1C` [sunitinib] + CC(C)CCN1c2nc(Nc3cc(F)c(O)c(F)c3)ncc2N(C)C(=O)C1C [BID1870] (first compound 0.4 µM, partner dose 0.2 µM) the value was 62.1%.
